# Measured values published in PMC7862700.
# Sequences of proteins named here, by UniProt entry; tags and fusion partners are left off. A change or cut given only in a name is not applied to a line headed by its entry.
# UniProt P32519: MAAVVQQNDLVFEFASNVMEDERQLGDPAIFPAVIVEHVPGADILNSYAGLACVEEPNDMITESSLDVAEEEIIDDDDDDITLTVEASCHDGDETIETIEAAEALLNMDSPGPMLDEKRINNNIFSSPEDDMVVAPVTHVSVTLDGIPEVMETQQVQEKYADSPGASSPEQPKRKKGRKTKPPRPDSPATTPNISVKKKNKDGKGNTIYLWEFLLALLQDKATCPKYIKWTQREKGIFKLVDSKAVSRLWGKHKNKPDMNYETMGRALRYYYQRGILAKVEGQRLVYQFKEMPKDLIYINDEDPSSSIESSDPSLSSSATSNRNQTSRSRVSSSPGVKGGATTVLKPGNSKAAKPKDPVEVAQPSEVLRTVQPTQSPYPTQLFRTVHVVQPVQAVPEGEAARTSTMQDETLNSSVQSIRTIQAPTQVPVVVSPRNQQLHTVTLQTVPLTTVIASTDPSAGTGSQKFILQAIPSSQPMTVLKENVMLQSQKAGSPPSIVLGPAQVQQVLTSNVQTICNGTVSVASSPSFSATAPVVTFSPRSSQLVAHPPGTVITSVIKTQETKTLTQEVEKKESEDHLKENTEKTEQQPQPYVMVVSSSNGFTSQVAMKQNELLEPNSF
# UniProt P50549: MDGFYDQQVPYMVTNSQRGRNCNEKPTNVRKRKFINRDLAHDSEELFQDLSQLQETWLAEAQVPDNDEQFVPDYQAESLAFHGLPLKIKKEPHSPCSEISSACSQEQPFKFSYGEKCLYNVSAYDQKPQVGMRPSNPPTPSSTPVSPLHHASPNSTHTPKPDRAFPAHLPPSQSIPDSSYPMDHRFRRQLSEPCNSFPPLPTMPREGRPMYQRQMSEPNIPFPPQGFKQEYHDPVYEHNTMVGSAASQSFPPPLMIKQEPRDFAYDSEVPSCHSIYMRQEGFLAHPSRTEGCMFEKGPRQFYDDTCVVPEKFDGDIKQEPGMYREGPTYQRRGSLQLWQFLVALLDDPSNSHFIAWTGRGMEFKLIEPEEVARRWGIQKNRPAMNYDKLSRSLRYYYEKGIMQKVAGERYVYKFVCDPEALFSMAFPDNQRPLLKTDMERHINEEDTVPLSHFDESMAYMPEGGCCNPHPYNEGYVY
# The entries are a selection whose mix differs from that of the whole data set. For some of these results: At the low end of the ranking the order means little. This is one part of the list. For some of these results: The exact form of the protein is not confirmed.
# Columns and labels:
# Experiment in all cases: DAPPL (digital affinity profiling via proximity ligation, sequencing)
# Settings in all cases: 10 mM Tris-HCl pH 7.5, 50 mM NaCl, 1 mM DTT, 4% glycerol, room temperature, 30 min; GST-TFs on glutathione beads, 16-mer random dsDNA library, 0.1% …; high values mean tight binding; double strand, one strand shown; scale: fold enrichment (6-mer frequency, TF over GST control)
# ERG = biological target: T1, ERG (UniProt P11308)
# T1 sequence: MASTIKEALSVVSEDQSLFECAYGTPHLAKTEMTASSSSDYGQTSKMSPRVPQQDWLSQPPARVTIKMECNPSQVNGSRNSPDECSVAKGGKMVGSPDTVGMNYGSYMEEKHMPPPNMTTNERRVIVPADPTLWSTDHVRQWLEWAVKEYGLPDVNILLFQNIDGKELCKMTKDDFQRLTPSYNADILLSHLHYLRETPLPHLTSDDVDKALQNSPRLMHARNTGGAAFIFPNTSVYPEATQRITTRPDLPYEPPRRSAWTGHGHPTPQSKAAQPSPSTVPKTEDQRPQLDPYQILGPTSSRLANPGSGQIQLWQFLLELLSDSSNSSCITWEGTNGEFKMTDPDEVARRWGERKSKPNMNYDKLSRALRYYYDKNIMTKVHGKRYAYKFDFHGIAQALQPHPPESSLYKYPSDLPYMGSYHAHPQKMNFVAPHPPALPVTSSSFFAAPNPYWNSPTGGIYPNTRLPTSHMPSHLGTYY
# ELK4 = biological target: T2, ELK4 (UniProt P28324-2)
# T2 sequence: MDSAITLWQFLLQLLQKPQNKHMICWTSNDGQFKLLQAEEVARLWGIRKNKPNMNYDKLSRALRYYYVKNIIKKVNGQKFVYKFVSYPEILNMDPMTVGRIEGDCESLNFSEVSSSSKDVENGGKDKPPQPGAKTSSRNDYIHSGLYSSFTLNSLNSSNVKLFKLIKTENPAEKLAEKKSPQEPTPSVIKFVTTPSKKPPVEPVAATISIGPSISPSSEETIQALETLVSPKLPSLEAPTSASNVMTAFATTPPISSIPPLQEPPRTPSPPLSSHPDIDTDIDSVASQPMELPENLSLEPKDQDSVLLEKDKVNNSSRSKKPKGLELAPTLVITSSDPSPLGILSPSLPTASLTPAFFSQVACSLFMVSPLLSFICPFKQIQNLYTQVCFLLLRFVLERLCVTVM
# ETV4 = biological target: T3, ETV4 (UniProt P43268)
# T3 sequence: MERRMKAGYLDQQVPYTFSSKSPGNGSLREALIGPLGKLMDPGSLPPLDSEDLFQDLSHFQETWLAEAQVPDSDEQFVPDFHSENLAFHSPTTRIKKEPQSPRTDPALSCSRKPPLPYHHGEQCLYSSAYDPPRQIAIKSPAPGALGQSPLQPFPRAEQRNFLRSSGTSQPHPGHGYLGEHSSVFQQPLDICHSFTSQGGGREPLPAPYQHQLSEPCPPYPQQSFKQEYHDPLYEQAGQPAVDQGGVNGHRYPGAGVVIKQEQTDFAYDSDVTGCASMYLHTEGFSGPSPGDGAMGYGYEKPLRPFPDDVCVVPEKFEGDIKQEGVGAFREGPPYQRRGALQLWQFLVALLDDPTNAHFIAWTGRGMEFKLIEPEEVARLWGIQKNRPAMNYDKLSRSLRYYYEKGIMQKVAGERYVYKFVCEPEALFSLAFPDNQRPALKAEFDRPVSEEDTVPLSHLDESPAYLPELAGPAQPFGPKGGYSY
# ERF = biological target: T4, ERF (UniProt P50548)
# T4 sequence: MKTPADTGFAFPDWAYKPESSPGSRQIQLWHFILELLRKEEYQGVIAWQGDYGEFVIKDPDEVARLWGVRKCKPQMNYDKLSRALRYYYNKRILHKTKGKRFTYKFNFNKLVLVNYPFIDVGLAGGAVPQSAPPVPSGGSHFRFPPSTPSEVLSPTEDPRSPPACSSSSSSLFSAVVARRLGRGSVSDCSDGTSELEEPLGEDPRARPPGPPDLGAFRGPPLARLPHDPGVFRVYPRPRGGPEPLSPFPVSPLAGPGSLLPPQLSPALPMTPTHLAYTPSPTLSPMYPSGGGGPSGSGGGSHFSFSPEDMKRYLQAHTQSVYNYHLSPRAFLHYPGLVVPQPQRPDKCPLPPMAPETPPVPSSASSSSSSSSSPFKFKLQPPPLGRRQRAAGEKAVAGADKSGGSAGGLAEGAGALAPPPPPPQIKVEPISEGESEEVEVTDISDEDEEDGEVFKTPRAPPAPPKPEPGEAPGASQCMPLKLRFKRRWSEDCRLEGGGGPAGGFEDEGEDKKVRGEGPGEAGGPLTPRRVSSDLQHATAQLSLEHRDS
# ELF1 = ELF1 (UniProt P32519)
# ETV1 = ETV1 (UniProt P50549)
Sequence,binding signal (ERG),binding signal (ELK4),binding signal (ETV4),binding signal (ERF),binding signal (ELF1),binding signal (ETV1)
TGATTT,1.35,1.2,1.16,1.17,,
ACGGTT,0.987,0.981,0.971,0.933,,
ATGCGC,1.18,1.28,1.08,1.24,,
CAGTAT,0.935,1.06,0.953,,0.99,0.921
TTAGCA,1.3,1.33,1.23,1.29,,
CAATGG,0.971,0.987,1.07,,1.03,1.1
TGAAGA,0.962,1.02,0.99,,0.998,0.94
ACGAAG,0.976,0.964,0.905,,0.908,0.925
CTGCGG,1.1,0.959,1.07,1.04,,
TTAAGA,0.975,0.981,0.973,,1.05,0.97
ACGAAA,1.14,1.24,1.13,1.34,,
GCTCAC,1.51,1.53,1.61,1.58,,
AGAAAA,1.02,0.969,0.971,0.999,,
AACGCG,0.978,0.963,0.968,0.896,,
AGTGTC,1.08,0.954,0.976,0.996,,
GCAACA,0.941,1.08,0.96,,0.998,0.903
ACCGTT,0.99,0.809,0.944,,0.965,0.865
CACGTT,1.28,1.29,1.26,1.36,,
TGCGAA,1.16,1.19,1.18,1.07,,
CATAAG,0.993,0.95,0.975,,0.91,0.961
CAGCAC,0.935,0.839,0.994,,1.02,0.987
CCACCA,0.873,1.14,1.07,0.991,,

# A second format for some results above.
Sequence | binding signal (ERG) | binding signal (ELK4) | binding signal (ETV4) | binding signal (ERF) | binding signal (ELF1) | binding signal (ETV1)
TGATTT | 1.35 | 1.2 | 1.16 | 1.17 |  | 
CAGCAC | 0.935 | 0.839 | 0.994 |  | 1.02 | 0.987
